From article doi:10.1101/2020.04.06.027185 come the findings set out here.

These are yes or no findings as the source states them, for the method shown. In cells and extracts the contact can be indirect. A result given as binding can be weak or reduced; the word gives no strength.

The target of this assay is E-cadherin (human (endogenous in HaCaT)). Briefly: co-IP.

B1: desmoglein 3 (protein, UniProt P32926 50-999)
chain: EWVKFAKPCREGEDNSKRNPIAKITSDYQATQKITYRISGVGIDQPPFGIFVVDKNTGDINITAIVDREETPSFLITCRALNAQGLDVEKPLILTVKILDINDNPPVFSQQIFMGEIEENSASNSLVMILNATDADEPNHLNSKIAFKIVSQEPAGTPMFLLSRNTGEVRTLTNSLDREQASSYRLVVSGADKDGEGLSTQCECNIKVKDVNDNFPMFRDSQYSARIEENILSSELLRFQVTDLDEEYTDNWLAVYFFTSGNEGNWFEIQTDPRTNEGILKVVKALDYEQLQSVKLSIAVKNKAEFHQSVISRYRVQSTPVTIQVINVREGIAFRPASKTFTVQKGISSKKLVDYILGTYQAIDEDTNKAASNVKYVMGRNDGGYLMIDSKTAEIKFVKNMNRDSTFIVNKTITAEVLAIDEYTGKTSTGTVYVRVPDFNDNCPTAVLEKDAVCSSSPSVVVSARTLNNRYTGPYTFALEDQPVKLPAVWSITTLNATSALLRAQEQIPPGVYHISLVLTDSQNNRCEMPRSLTLEVCQCDNRGICGTSYPTTSPGTRYGRPHSGRLGPAAIGLLLLGLLLLLLAPLLLLTCDCGAGSTGGVTGGFIPVPDGSEGTIHQWGIEGAHPEDKEITNICVPPVTANGADFMESSEVCTNTYARGTAVEGTSGMEMTTKLGAATESGGAAGFATGTVSGAASGFGAATGVGICSSGQSGTMRTRHSTGGTNKDYADGAISMNFLDSYFSQKAFACAEEDDGQEANDCLLIYDNEGADATGSPVGSVGCCSFIADDLDDSFLDSLGPKFKKLAEISLGVDGEGKEVQPPSKDSGYGIESCGHPIEVQQTGFVKCQTLSGSQGASALSTSGSVQPAVSIPDPLQHGNYLVTETYSASGSLVQPSTAGFDPLLTQNVIVTERVICPISSVPGNLAGPTQLRGSHTMLCTEDPCSRLI
Turning to B1, the binding entry was “binds”.

B2: desmocollin 3 (protein, UniProt Q14574 136-896)
chain: RWAPIPCSMQENSLGPFPLFLQQVESDAAQNYTVFYSISGRGVDKEPLNLFYIERDTGNLFCTRPVDREEYDVFDLIAYASTADGYSADLPLPLPIRVEDENDNHPVFTEAIYNFEVLESSRPGTTVGVVCATDRDEPDTMHTRLKYSILQQTPRSPGLFSVHPSTGVITTVSHYLDREVVDKYSLIMKVQDMDGQFFGLIGTSTCIITVTDSNDNAPTFRQNAYEAFVEENAFNVEILRIPIEDKDLINTANWRVNFTILKGNENGHFKISTDKETNEGVLSVVKPLNYEENRQVNLEIGVNNEAPFARDIPRVTALNRALVTVHVRDLDEGPECTPAAQYVRIKENLAVGSKINGYKAYDPENRNGNGLRYKKLHDPKGWITIDEISGSIITSKILDREVETPKNELYNITVLAIDKDDRSCTGTLAVNIEDVNDNPPEILQEYVVICKPKMGYTDILAVDPDEPVHGAPFYFSLPNTSPEISRLWSLTKVNDTAARLSYQKNAGFQEYTIPITVKDRAGQAATKLLRVNLCECTHPTQCRATSRSTGVILGKWAILAILLGIALLFSVLLTLVCGVFGATKGKRFPEDLAQQNLIISNTEAPGDDRVCSANGFMTQTTNNSSQGFCGTMGSGMKNGGQETIEMMKGGNQTLESCRGAGHHHTLDSCRGGHTEVDNCRYTYSEWHSFTQPRLGEKLHRCNQNEDRMPSQDYVLTYNYEGRGSPAGSVGCCSEKQEEDGLDFLNNLEPKFITLAEACTKR
For B2, the binding entry was “binds”.
